# Experimental data from PubChem BioAssay (Tox21).
# Sequences of proteins named here, by UniProt entry; tags and fusion partners are left off.
# UniProt P14416, whole entry, looked up: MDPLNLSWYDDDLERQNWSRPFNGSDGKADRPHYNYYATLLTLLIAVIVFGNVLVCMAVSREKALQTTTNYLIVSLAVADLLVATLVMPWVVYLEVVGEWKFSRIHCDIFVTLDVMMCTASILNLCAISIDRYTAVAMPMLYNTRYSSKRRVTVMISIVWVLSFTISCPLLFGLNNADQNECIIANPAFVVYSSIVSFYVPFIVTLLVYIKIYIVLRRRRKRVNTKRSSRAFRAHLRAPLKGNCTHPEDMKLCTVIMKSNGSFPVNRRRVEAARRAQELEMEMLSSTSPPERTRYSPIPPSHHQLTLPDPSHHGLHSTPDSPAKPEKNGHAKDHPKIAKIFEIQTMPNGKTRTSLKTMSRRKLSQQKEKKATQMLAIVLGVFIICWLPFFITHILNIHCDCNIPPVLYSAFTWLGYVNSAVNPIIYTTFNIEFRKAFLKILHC
# Several values for one entry are separate records, joined by “and”; a condition that tells them apart may be missing. Identical values can stand only once. The shares of active, inactive and inconclusive entries below differ from those in the screen. For some assays here: A potency beside an inconclusive call is a rough fit, not a confirmed value. Activity calls are given as the source filed them. Unless noted, the call rests on the fitted dose curve.
# Tested on: not listed separately
# Assay: cAMP Responsive Elements (CRE) small molecule antagonists, cell-based qHTS assay (AID 1963591; active means well fitted inhibition curve with a large enough effect in the signal ratio in the repeat runs, not every such curve was filed as active; inconclusive means weak or mixed curves, or effect the other way; the % refers to the signal ratio; further: potency means the concentration at half of the fitted maximal effect)
# Conditions: CRE-bla HEK293T, beta-lactamase FRET ratio; activity change, negative = inhibition: at 92.4 µM (top of the series) unless noted
# Summary of the method: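 Antagonist mode: test compounds are co-incubated with the adenylyl cyclase activator NKH477 (0.25 uM final) on CRE-bla HEK293T cells for 3 h at 37 °C, followed by LiveBLAzer substrate loading.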
# On the % scale 0 is the no-effect control and ±100 the full control effect.
SMILES,Potency,"activity change, negative = inhibition"
CC(C)c1cccc(C(C)C)c1O,inactive,–
CCC[N+](CCC)(CCC)CCC,inactive,–
O.O.O.O.O.O.O=S(=O)([O-])[O-].[Ni+2],inactive,–
O=[N+]([O-])O,inactive,–
C1CCC(C2CCCCC2)CC1,"inconclusive: 54.5 µM [activator, single point]",–
[O-][Cl+2]([O-])O,–,inconclusive: -2.18%
O=C(CBr)c1ccccc1,inactive,–
Cc1cccc(N)c1C,inactive,–

# Molecular target: Beta-2 adrenergic receptor (Homo sapiens) (UniProt P07550)
# Assay: Adrenergic beta2 receptor (ADRB2) small molecule antagonists, cell-based qHTS assay (AID 1963592); further: nearly all actives have a fitted effect of over 50% in size; further: potency means the concentration at half of the fitted maximal effect
# Conditions: CHO-ADRB2 cells, isoproterenol-stimulated cAMP HTRF ratio, 0.5 h; activity change, negative = inhibition: at 92.4 µM (top of the series) unless noted
# Summary of the method: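 Cells (CHO, stable ADRB2 overexpression) incubated 18-20hr at 37C; compounds added from DMSO; agonist mix (1nM isoproterenol, 100uM IBMX, 25uM Ro-20-1724) added; 0.5hr RT; d2-cAMP and anti-cAMP-cryptate added; 1hr RT; 665/615 nm read.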
SMILES,Potency,"activity change, negative = inhibition"
Cc1ccc([N+](=O)[O-])cc1,inactive,–
O=C(NCc1cccnc1)Nc1ccc([N+](=O)[O-])cc1,inactive,–
CC(C)CC(C)N (centres undefined),–,inconclusive: 0.537%
O.O.O.O.O.O.O.O=S(=O)([O-])[O-].[Co+2],inactive,–
CC(C)(Cl)Cl,inactive,–
O=[N+]([O-])O,"inconclusive: 21.7 µM [inhibitor, partial curve, poor fit]",–
CC(C)C#N,–,inconclusive: -33.4%
CCC(C)(CC)c1cc(NC(=O)c2c(OC)cccc2OC)on1,–,inconclusive: -4.83%
ClCCBr,inactive,–
N#CC(Cl)(Cl)Cl,inactive,–

# Molecular target: Beta-2 adrenergic receptor (Homo sapiens) (UniProt P07550)
# Assay: Adrenergic beta2 receptor (ADRB2) small molecule agonists, cell-based qHTS assay (AID 1963593); further: potency means the concentration at half of the fitted maximal effect;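 on activation: CHO cells stably overexpressing human ADRB2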
# Conditions: CHO-ADRB2 cells, cAMP HTRF, 30 min; activation: at 92.4 µM (top of the series) unless noted
# Summary of the method: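 CHO cells stably over-expressing ADRB2 were plated overnight at 37C, then dosed with compounds plus a stimulation mix containing 100uM IBMX and 25uM Ro-20-1724 for 0.5hr at room temperature. cAMP was measured by HTRF competition, 1hr.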
SMILES,activation,Potency
C/C(=C\c1ccccc1)[N+](=O)[O-],inconclusive: 15%,–
BrCCBr,–,inactive
Cc1ccc([N+](=O)[O-])cc1,–,inactive
CC(C)c1ccc(CO)cc1,inconclusive: 15.5%,"inconclusive: 24.3 µM [rising, partial curve, poor fit]"
CC(C)c1cccc(C(C)C)c1O,–,inactive
Cc1[nH]c(=O)n(C(C)(C)C)c(=O)c1Cl,inconclusive: -11.6% and inconclusive: 11.1%,–
CON(C)C(=O)Nc1ccc(Br)cc1,inconclusive: 1.92%,–
O=C(NCc1cccnc1)Nc1ccc([N+](=O)[O-])cc1,inconclusive: -32.3%,–
COC(=O)c1ccccc1S(=O)(=O)NC(=O)N(C)c1nc(C)nc(OC)n1,inconclusive: -2.05%,–
CCCCn1cc[n+](C)c1.[Cl][Fe-]([Cl])([Cl])[Cl],–,inactive
O=C(O)CF,inconclusive: -16.7% and inconclusive: 21.1%,–
CC(C)CC(C)N (centres undefined),inconclusive: -0.415%,–
CC(=O)[O-].CC(=O)[O-].CC(=O)[O-].[Cr+3],inconclusive: 2.76%,–
CC(C)(COCC1CO1)COCC1CO1 (centres undefined),–,inactive
O.O.O.O.O.O.O.O=S(=O)([O-])[O-].[Co+2],inconclusive: -0.231%,–
CC(C)(Cl)Cl,inconclusive: -13.3%,–
O.O.O.O.O.O.O=S(=O)([O-])[O-].[Ni+2],–,"inconclusive: 26.1 µM [inhibitor, partial curve, poor fit]"
COP(=S)(Oc1cc(Cl)c(Br)cc1Cl)c1ccccc1 (centres undefined),–,inactive

SMILES,activation,Potency
O=[N+]([O-])O,–,"inconclusive: 6.57 µM [inhibitor, single point] and inactive and inconclusive: 6.86 µM [inhibitor]"
CC(C)C#N,–,inactive
CN(N=O)c1ccccc1,inconclusive: 8.33%,"inconclusive: 2.25 µM [inhibitor, single point]"
CCc1cnc(C2=NC(C)(C(C)C)C(=O)N2)c(C(=O)O)c1 (centres undefined),inconclusive: -43.1%,–
OCC1CO1 (centres undefined),–,"inconclusive: 2.78 µM [inhibitor, full curve, poor fit] and inactive"
CC[N+](=O)[O-],–,"inconclusive: 0.686 µM [inhibitor, full curve, poor fit]"
CCc1cccc(CC)c1N(COC)C(=O)CCl,inconclusive: -13.8%,"inconclusive: 0.745 µM [inhibitor, partial curve, poor fit]"
C1CCC(C2CCCCC2)CC1,–,inactive
CCC(C)(CC)c1cc(NC(=O)c2c(OC)cccc2OC)on1,–,"inconclusive: 48.7 µM [inhibitor, partial curve, poor fit] and inconclusive: 74.1 µM [inhibitor, single point]"
CCCC[P+](CC)(CCCC)CCCC (tested in a mixture with another compound),inconclusive: 31.7%,–
O=C(CBr)c1ccccc1,inconclusive: -27.2%,–
ClP(Cl)(Cl)(Cl)Cl,–,inactive
Cc1ncc(C[n+]2csc(CCO)c2C)c(N)n1,inconclusive: 1.4%,–
ClCCBr,–,"inconclusive: 2.73 µM [inhibitor, single point]"
N#CC(Cl)(Cl)Cl,inconclusive: 8.12%,–
Cc1cccc(N)c1C,–,"inconclusive: 15.9 µM [inhibitor, single point] and inactive"
CN1C(=O)COc2c(C(=O)NC3CN4CCC3CC4)cc(Cl)cc21 (centres undefined),–,"inconclusive: 7.5 µM [inhibitor, single point]"

# Molecular target: D(2) dopamine receptor (Homo sapiens) (UniProt P14416)
# Assay: Dopamine D2 receptor (DRD2) small molecule agonists, cell-based qHTS assay (AID 1963594); further: nearly all actives have a fitted effect of over 35% in size
# Conditions: HEK293-DRD2 cAMP HTRF, agonist mode, 30 min; activation: at 92.4 µM (top of the series) unless noted
# Summary of the method: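 HEK293 cells stably expressing DRD2 were cultured 24 h at 37 C, then given Ro20-1724 (0.1 mM final) and compounds for 10 min at room temperature. NKH477 (200nM) was then added for 30 min. cAMP was read by HTRF.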
SMILES,Potency,activation
CC(C)CC(C)N (centres undefined),inactive,–
CCCCC(CC)C(=O)Cl (centres undefined),inactive,–
CCC(C)(CC)c1cc(NC(=O)c2c(OC)cccc2OC)on1,–,inconclusive: 27.5%
